Some of the results follow.
Compound: c1cn2cc(-c3ccc4cn[nH]c4c3)nc(Nc3ccc(N4CCOCC4)cc3)c2n1 [entospletinib]
Experiment: log2 fold change, soluble protein after heating vs DMSO (PISA); higher = thermal stabilisation; K562 cells, 10 uM, 30 min; active = over 0.2 and 3.5 SD of the protein, either way, in both replicates (recomputed)
Summary of the method: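 Values are thermal stability changes relative to control samples and are taken from duplicates. They are stated as log2 fold changes. Before quantification by TMTpro 16plex LC-MS/MS with equalised channel sums, K562 cells at 2×10^6 cells/mL were treated with 10 μM compound for 30 min, heated in aliquots for 3 min across 48°C-58°C, pooled, extracted in PBS with 0.5% NP-40 at 4°C, and centrifuged at 21,000xg for 90 min to give the soluble supernatant.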

The chains behind the UniProt entries cited, without tags or fusion partners. Where a name states a change or a piece, a line headed by the entry shows the natural chain unless it says otherwise.
UniProt P14735, whole entry, looked up: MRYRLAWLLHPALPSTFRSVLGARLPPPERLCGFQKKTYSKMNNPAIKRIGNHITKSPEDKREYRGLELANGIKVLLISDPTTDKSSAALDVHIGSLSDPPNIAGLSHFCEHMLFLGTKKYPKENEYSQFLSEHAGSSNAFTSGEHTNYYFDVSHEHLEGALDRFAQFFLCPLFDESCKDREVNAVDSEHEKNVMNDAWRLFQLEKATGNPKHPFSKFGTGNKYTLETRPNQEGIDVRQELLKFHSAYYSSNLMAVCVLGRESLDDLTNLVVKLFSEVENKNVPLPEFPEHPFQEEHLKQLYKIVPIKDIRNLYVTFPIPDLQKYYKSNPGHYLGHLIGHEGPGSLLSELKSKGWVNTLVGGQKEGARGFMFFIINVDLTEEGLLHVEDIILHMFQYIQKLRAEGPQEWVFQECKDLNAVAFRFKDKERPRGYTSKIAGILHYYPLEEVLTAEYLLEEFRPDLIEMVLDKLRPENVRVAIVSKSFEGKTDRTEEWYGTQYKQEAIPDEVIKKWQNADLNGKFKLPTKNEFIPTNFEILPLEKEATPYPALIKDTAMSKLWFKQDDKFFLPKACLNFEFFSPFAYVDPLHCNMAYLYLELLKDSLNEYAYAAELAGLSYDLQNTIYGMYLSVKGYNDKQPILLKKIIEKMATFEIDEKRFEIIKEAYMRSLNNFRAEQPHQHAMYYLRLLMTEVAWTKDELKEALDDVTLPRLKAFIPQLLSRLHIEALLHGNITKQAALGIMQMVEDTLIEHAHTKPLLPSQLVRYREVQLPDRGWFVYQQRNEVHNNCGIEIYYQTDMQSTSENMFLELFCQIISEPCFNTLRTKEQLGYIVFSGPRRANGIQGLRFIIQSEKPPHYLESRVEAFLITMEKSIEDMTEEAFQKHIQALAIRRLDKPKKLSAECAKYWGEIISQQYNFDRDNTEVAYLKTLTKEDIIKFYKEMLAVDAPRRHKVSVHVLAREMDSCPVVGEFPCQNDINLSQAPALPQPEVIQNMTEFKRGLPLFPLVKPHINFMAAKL
UniProt P31937: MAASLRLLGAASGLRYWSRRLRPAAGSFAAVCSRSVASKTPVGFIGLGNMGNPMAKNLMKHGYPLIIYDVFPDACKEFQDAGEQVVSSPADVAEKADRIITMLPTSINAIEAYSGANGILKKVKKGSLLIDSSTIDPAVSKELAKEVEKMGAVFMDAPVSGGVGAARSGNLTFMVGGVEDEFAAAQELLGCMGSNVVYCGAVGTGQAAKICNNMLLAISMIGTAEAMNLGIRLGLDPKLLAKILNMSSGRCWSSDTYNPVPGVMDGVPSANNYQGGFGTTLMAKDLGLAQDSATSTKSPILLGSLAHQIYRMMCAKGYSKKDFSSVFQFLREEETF
UniProt P17096: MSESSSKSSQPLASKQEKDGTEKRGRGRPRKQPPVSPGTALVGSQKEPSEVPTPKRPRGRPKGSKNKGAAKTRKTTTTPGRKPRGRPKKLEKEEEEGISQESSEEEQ
UniProt Q9NSE4: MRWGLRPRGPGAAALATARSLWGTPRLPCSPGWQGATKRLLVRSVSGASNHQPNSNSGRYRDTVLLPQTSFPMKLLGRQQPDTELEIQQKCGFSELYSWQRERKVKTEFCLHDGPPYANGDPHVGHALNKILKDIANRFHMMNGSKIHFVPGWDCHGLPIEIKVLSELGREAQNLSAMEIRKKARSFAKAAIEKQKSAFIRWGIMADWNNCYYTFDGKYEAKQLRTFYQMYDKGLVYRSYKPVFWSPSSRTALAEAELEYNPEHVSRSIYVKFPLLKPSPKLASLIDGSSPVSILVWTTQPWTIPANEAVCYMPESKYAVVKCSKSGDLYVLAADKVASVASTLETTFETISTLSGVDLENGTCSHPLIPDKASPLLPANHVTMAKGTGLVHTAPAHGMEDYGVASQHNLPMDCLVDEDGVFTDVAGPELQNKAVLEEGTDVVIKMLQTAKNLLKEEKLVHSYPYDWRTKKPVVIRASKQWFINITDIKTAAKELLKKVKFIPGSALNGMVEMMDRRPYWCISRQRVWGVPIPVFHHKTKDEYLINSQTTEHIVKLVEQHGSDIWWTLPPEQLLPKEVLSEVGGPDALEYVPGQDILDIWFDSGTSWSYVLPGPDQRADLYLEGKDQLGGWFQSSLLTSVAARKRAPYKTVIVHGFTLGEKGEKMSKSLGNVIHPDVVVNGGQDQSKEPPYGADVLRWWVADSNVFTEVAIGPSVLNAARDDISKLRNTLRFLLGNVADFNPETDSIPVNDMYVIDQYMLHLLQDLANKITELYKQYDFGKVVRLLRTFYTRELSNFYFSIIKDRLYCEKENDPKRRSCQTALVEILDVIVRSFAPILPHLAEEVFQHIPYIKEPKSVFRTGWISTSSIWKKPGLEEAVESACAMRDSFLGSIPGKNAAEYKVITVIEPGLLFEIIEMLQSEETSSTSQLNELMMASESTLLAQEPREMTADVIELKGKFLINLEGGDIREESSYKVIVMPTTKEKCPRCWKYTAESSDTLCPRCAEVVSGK
UniProt Q6YN16: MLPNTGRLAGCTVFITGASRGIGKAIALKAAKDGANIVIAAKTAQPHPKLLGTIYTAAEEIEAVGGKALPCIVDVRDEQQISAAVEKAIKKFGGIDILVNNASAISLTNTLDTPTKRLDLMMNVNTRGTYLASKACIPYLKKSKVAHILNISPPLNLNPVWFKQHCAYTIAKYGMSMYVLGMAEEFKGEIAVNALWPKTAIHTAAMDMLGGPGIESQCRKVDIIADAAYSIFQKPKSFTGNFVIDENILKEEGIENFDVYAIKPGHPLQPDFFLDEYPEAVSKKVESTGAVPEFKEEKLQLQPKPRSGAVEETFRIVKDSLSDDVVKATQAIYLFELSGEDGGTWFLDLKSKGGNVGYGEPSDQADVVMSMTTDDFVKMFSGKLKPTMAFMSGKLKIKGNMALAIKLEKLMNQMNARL
UniProt P41252: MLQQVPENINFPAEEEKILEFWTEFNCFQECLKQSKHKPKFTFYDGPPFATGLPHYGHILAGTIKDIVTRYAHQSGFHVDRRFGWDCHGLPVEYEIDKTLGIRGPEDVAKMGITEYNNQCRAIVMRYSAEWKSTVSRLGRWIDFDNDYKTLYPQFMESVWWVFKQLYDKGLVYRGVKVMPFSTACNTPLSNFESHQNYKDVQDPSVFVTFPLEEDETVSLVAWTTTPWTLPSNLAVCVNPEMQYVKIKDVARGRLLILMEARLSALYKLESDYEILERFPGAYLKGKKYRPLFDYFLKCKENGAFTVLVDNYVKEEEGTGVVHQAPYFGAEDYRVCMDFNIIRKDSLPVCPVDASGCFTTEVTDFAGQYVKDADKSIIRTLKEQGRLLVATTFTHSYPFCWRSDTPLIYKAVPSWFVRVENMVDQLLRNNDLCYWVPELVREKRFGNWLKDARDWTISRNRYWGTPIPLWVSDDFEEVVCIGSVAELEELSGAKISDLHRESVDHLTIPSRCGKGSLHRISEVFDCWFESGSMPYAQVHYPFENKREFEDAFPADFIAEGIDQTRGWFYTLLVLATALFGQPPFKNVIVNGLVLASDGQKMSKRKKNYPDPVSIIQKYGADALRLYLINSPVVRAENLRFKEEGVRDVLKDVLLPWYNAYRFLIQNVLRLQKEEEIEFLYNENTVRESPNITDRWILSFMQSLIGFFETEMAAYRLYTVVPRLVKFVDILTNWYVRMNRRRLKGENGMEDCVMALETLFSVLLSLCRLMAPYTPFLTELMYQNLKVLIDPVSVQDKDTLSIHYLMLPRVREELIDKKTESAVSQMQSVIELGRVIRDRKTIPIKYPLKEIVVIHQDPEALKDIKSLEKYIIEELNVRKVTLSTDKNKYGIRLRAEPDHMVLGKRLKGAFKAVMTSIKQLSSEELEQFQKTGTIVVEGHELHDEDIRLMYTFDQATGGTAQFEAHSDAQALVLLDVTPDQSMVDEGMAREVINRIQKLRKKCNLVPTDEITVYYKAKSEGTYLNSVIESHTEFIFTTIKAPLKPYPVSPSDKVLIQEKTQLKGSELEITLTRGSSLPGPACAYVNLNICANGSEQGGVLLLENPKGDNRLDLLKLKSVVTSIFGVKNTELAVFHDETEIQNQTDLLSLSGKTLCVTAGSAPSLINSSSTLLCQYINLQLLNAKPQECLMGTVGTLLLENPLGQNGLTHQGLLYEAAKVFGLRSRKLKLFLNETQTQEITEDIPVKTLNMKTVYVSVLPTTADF
UniProt P51659: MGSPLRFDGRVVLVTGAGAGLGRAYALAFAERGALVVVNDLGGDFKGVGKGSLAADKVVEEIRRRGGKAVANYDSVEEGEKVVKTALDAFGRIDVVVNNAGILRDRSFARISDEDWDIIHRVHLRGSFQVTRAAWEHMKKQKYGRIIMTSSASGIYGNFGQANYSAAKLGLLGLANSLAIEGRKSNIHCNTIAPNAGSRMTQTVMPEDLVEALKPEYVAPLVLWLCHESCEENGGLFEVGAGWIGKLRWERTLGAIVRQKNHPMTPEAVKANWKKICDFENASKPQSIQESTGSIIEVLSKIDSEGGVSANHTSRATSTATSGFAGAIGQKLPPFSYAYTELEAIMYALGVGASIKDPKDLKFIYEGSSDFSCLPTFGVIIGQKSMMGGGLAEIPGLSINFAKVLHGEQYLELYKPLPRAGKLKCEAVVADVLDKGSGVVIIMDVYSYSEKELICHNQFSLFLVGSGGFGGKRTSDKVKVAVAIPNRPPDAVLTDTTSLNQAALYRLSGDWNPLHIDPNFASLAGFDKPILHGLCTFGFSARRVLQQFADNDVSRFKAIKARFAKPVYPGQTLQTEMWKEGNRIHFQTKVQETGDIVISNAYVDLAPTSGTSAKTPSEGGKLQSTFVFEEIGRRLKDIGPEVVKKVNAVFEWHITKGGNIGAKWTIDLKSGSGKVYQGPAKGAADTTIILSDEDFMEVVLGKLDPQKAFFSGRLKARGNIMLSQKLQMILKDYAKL
UniProt Q14103: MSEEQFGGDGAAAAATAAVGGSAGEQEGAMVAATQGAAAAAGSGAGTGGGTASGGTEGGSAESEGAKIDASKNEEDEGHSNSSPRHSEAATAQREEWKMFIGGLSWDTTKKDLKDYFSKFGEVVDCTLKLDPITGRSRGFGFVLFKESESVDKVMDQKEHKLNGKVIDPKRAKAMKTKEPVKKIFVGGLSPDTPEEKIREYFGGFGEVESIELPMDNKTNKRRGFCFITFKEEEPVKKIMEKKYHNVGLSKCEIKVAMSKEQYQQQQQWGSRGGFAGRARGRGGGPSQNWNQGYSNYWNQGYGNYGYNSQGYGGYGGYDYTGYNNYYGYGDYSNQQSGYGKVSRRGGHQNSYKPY
UniProt P13598: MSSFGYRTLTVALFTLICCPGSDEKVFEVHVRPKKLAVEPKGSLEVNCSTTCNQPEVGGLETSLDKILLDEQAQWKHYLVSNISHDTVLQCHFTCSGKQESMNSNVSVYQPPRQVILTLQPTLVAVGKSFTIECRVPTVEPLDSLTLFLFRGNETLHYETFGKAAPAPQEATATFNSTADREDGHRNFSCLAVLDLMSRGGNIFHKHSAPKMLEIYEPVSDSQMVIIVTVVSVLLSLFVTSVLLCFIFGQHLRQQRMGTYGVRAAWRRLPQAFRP
UniProt Q3SXM5: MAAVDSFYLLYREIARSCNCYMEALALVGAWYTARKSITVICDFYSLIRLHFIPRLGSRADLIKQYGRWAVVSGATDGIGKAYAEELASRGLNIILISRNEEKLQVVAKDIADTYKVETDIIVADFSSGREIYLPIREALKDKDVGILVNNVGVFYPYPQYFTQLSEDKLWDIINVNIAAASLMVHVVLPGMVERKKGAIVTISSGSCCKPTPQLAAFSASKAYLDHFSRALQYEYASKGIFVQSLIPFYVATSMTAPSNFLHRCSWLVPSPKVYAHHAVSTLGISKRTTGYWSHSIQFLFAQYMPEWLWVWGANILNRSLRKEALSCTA

log2 fold change, inactive:
IDE (UniProt P14735) -0.006
HIBADH (UniProt P31937) 0.024
HMGA1 (UniProt P17096) 0.099
IARS2 (UniProt Q9NSE4) -0.005
HSDL2 (UniProt Q6YN16) 0.011
IARS (UniProt P41252) 0.15
HSD17B4 (UniProt P51659) 0.024
HNRNPD (UniProt Q14103) 0.069
ICAM2 (UniProt P13598) -0.008
HSDL1 (UniProt Q3SXM5) 0.015
HMGN5 (UniProt Q5JSK9) 0.07
